Results reported in publication PMC5868845.
These are yes or no findings as the source states them, for the method shown. Binding seen in cells or lysates may run through a third protein. A yes stands for co-enrichment or nearness to the bait. Other partners may have been found.

Chains of the proteins cited; added tags and fusions are not shown.
UniProt Q5SNZ0: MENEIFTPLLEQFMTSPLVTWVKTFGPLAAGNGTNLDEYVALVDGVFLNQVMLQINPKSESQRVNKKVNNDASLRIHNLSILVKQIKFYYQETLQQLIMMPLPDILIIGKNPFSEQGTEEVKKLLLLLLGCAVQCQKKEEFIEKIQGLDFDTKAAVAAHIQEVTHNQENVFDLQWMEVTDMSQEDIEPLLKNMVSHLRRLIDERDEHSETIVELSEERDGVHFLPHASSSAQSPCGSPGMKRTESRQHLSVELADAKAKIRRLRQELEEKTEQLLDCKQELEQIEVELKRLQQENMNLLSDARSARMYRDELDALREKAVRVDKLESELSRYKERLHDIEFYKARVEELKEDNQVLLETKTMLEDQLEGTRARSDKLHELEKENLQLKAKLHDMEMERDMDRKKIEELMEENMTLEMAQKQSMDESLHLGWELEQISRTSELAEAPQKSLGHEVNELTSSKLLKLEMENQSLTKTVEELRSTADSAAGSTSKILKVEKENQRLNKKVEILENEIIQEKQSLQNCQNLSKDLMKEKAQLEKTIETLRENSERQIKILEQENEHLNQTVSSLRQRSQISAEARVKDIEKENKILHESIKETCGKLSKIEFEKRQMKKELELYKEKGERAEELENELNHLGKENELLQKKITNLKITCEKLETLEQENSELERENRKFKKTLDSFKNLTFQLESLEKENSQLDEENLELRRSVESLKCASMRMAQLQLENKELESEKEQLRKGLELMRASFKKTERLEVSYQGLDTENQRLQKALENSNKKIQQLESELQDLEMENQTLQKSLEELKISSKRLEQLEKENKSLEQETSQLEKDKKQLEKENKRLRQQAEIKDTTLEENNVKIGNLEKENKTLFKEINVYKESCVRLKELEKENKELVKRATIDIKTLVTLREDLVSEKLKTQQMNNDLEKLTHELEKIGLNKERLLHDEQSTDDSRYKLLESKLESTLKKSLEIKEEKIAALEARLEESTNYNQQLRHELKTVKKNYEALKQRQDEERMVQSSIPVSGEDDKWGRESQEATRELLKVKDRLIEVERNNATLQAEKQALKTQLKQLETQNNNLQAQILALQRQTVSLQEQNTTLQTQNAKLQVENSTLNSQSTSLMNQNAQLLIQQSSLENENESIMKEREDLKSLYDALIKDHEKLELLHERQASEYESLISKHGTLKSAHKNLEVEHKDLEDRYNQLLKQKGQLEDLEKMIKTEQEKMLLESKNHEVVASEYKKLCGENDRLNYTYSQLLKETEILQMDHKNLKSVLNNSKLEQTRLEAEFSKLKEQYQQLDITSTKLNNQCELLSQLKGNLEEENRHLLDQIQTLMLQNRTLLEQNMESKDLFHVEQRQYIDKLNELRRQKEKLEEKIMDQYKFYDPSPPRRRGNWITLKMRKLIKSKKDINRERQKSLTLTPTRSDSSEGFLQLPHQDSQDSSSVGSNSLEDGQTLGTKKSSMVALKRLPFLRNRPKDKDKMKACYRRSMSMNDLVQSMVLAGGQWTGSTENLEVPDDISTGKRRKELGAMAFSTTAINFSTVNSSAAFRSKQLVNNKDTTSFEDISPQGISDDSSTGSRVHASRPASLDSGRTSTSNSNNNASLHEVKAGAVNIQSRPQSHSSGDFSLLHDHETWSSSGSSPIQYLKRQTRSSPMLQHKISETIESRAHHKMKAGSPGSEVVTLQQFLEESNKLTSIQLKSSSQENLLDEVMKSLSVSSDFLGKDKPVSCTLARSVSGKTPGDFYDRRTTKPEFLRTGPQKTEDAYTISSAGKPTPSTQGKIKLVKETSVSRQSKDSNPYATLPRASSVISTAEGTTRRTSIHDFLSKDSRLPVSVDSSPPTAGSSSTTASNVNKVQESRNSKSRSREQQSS
UniProt P10852: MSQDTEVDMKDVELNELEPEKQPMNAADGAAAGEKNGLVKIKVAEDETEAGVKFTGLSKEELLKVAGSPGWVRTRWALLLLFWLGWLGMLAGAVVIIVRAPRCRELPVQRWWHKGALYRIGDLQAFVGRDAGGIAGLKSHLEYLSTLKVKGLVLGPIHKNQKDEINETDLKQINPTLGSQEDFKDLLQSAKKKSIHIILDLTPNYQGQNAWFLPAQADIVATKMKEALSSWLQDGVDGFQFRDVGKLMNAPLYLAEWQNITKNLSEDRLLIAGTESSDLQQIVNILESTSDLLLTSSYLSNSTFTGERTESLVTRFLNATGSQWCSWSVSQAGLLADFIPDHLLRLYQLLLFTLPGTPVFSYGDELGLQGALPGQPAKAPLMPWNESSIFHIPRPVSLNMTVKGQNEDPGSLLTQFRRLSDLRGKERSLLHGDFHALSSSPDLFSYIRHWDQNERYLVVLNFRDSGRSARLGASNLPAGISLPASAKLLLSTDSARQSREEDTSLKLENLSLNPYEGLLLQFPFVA

Molecular target: girders of actin filaments (Girdin), mouse brain (mouse (endogenous in brain)) (UniProt Q5SNZ0)
Experiment: affinity purification with mass spectrometry; anti-Girdin antibody or normal IgG cross-linked (DSS) to protein G beads, incubated overnight at 4°C with precleared mouse whole brain lysate (20 mM Tris-HCl, 120 mM NaCl, 0.8% Triton X-100, 1 mM EDTA, pH 7.4); acidic elution; shotgun tandem mass spectrometry

## 4F2 heavy chain (4F2hc), mouse brain (from UniProt P10852 1-526)
  binding: binds
